# Earlier results in patent publication US20100152531A1, “IMPLANTABLE MEDICAL DEVICE FOR DRUG DELIVERY AND METHOD OF USE” (Paracor Medical, Inc., priority 2008, published 2010).
# Where two headings read alike, the source gives them in different places. For at least one compound, name, drawing or mass did not settle the structure.
# Experiments:
# [1] = system: mice with compensated or decompensated hypertrophy induced by aortic banding; settings: cited from earlier work; for regression of increases in heart size: systemic administration
# [2] = system: mice with transverse aortic constriction (TAC); settings: 4 weeks treatment, vs control animals with LV hypertrophy; cited from earlier work
# mice with aortic banding = settings: cited from earlier work
# [3] = patients switched from CNI; cited from earlier work
smiles,measurement,setting,value
CO[C@H]1C[C@@H]2CC[C@@H](C)[C@@](O)(O2)C(=O)C(=O)N2CCCC[C@H]2C(=O)O[C@H]([C@H](C)C[C@@H]2CC[C@@H](O)[C@H](OC)C2)CC(=O)[C@H](C)/C=C(\C)[C@@H](O)[C@@H](OC)C(=O)[C@H](C)C[C@H](C)/C=C/C=C/C=C/1C [sirolimus],regression of increases in heart size,[1]; compensated hypertrophy,68%
same,LV end diastolic diameter,[1]; compensated mice,Significant decreases
same,regression of increases in heart size,[1]; decompensated hypertrophy,41%
same,fractional shortening and EF,[1]; decompensated mice,improvements
same,left ventricular end-systolic diameter,[1]; decompensated mice,significant decreases
same,reduction of cardiomyocyte size,[2],46%
same,suppression of collagen deposition,[2],38%
same,basal activity and load-induced increase in S6 phosphorylation,mice with aortic banding; heart,completely inhibited
same,reduction of increases in myocyte size,"mice with aortic banding; mouse, in vivo",57%
same,suppression of load-induced increases in heart weight/tibial length,"mice with aortic banding; mouse, in vivo",67%
same,LV mass,[3],significant decrease
same,p27Kip1 protein in myocardial biopsies,[3],increased
same,systolic and diastolic blood pressure,[3],decreased
